Measured values published in publication doi:10.1101/2022.03.06.483192.
Results are given in words; binding and its absence hold for the method and conditions named. Some entries that bind do so weakly or less than the wild type.

Molecular target: T1, SYCP1 (1-811) (human) (UniProt Q15431)
T1 sequence: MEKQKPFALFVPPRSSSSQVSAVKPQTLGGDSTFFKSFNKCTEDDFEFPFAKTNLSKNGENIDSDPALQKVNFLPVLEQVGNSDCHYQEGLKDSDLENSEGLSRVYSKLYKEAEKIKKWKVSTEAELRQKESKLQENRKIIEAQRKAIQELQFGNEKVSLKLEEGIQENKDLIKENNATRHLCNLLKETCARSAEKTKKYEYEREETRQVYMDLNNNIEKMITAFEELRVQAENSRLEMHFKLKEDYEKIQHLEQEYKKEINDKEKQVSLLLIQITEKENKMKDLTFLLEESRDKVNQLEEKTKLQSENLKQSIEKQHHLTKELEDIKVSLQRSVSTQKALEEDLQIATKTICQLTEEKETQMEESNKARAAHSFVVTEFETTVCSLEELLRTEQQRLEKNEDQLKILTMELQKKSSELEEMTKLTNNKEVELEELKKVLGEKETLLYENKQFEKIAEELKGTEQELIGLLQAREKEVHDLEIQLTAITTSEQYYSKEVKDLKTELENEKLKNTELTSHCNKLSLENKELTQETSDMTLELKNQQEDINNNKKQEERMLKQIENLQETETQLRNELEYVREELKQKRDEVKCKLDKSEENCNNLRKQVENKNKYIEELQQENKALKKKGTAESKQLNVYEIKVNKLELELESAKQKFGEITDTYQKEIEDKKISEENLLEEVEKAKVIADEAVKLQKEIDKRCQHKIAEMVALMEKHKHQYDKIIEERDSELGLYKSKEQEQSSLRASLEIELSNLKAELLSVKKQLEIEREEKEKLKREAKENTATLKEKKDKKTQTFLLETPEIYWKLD
Test: two-hybrid

binding: binds
B1: SYCE3 (1-88) (protein, UniProt A1L190 1-88)
chain: MDDADPEERNYDNMLKMLSDLNKDLEKLLEEMEKISVQATWMAYDMVVMRTNPTLAESMRRLEDAFVNCKEEMEKNWQELLHETKQRL
